PMC8905318
Results are given in words; binding and its absence hold for the method and conditions named. Binding can be weak; no strength is given.

Chains of the proteins cited; added tags and fusions are not shown. Lines headed by an entry give the natural chain unless they say otherwise; changes in a name come on top.
UniProt M5WCL3: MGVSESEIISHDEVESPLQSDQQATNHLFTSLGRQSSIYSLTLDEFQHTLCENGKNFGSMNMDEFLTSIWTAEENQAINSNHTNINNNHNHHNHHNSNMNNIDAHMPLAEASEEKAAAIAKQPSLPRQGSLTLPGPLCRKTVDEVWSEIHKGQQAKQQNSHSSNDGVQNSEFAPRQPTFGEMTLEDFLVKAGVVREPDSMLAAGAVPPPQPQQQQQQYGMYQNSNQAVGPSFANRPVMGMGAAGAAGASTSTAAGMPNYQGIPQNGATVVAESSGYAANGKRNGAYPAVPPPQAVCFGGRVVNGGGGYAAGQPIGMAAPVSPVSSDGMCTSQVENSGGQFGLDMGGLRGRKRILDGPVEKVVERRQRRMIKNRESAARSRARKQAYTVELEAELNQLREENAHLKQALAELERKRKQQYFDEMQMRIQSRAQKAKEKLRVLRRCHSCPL
UniProt M5WPA1: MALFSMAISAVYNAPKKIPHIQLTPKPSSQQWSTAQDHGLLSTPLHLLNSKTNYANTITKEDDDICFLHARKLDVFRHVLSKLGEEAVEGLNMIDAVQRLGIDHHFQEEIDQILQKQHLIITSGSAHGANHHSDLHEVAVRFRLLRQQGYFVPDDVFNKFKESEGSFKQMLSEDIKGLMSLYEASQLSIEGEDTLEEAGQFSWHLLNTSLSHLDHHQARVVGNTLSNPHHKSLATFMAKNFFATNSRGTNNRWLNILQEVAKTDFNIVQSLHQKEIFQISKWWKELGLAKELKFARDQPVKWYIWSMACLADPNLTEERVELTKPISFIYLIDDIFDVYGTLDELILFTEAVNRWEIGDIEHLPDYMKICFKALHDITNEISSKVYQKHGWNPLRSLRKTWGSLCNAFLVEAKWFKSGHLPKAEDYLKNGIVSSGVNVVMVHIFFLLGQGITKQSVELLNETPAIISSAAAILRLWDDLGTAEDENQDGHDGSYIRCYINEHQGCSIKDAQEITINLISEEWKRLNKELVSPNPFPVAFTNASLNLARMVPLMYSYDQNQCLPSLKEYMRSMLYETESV

Target: PpABI5-GST protein (Prunus persica (peach)) (UniProt M5WCL3)
Assay: pull-down; purified PpTPS1-His mixed with PpABI5-GST or GST, purified by a GST purification column, Western blot with His/GST tag antibodies; both purified

In the case of “PpTPS1-His fusion protein (from UniProt M5WPA1) (enzyme)”, the binding was “binds”.
